# Experimental data from PubChem BioAssay AID192 (DTP/NCI, 2004).
# The list is a part of this screen's results and no random one: it is rich in T/C values a quarter to a half above the control, in often repeated tests (any T/C) and in doses without a T/C. Other doses and runs of a compound stand elsewhere. T/C is the treated group as % of the vehicle group. Some doses have a count of surviving animals in place of a T/C: the source files T/C as zero there, which appears to mark a toxic dose or a test without result, not a measured value. Some survivor counts are full or nearly so, which does not show that the dose was tolerated: survival well below the control is almost never listed, so the zero probably covers shortened survival too. Counts of survivors are from the toxicity check (mostly the fifth day) where no day follows; animals may have died later. Schedules are NCI's codes, read here as Q, the interval in days (D) or hours (H), X, the number of doses. Some doses were run more than once; their values stand side by side, smallest first. Where survival is the endpoint, the PubChem record calls one and a half times the control and up active, and a quarter to a half above the control has no call in these data; cut-offs in other NCI protocols can differ.
# Test system: BDF1 mice, B16 melanoma ip, median survival T/C
# Assay: NCI In Vivo Anticancer Drug Screen. Data for tumor model B16 Melanoma (intraperitoneal) in B6D2F1 (BDF1) mice
# Settings: T/C endpoint: median survival time, higher T/C = longer survival
# In short: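 Antitumor activity is assessed in mice bearing a transplanted tumor, with survival or tumor size compared against vehicle-dosed controls and expressed as T/C.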
# [1] = dose: 50.0 mg/kg/injection, schedule: Q01DX009 (ip), vehicle: saline with Tween-80
# [2] = dose: 100.0 mg/kg/injection, schedule: Q01DX009 (ip), vehicle: saline with Tween-80
# [3] = dose: 200.0 mg/kg/injection, schedule: Q01DX009 (ip), vehicle: saline with Tween-80
# [4] = dose: 25.0 mg/kg/injection, schedule: Q01DX009 (ip), vehicle: saline with Tween-80
# [5] = dose: 8.0 mg/kg/injection, schedule: Q01DX009 (ip), vehicle: saline
# [6] = dose: 100.0 mg/kg/injection, schedule: Q01DX009 (ip), vehicle: Klucel (hydroxypropylcellulose) (HPC)
# [7] = dose: 200.0 mg/kg/injection, schedule: Q01DX009 (ip), vehicle: Klucel (hydroxypropylcellulose) (HPC)
# [8] = dose: 400.0 mg/kg/injection, schedule: Q01DX009 (ip), vehicle: Klucel (hydroxypropylcellulose) (HPC)
# [9] = dose: 100.0 mg/kg/injection, schedule: Q04DX003 (ip), vehicle: saline with Tween-80
# [10] = dose: 3.0 mg/kg/injection, schedule: Q01DX009 (ip), vehicle: saline
# [11] = dose: 200.0 mg/kg/injection, schedule: Q01DX009 (ip), vehicle: saline
# [12] = dose: 400.0 mg/kg/injection, schedule: Q01DX009 (ip), vehicle: saline
# [13] = dose: 400.0 mg/kg/injection, schedule: Q01DX009 (ip), vehicle: saline with Tween-80
compound,measurement,setting,value
CCCCNC(C)(C)C(SSSC(c1cccs1)C(C)(C)NCCCC)c1cccs1 (centres undefined),survivor count,[1],10 of 10
same,survivor count,[2],10 of 10
same,survivor count,[3],10 of 10
O=c1cc(CCl)[nH]nc1CCl,T/C,"dose: 6.0 mg/kg/injection, schedule: Q01DX009 (ip), vehicle: saline with Tween-80",131 % of control
same,T/C,"dose: 6.25 mg/kg/injection, schedule: Q01DX009 (ip), vehicle: saline with Tween-80",130 % of control
same,T/C,"dose: 12.0 mg/kg/injection, schedule: Q01DX009 (ip), vehicle: saline with Tween-80",128 % of control
same,survivor count,"dose: 24.0 mg/kg/injection, schedule: Q01DX009 (ip), vehicle: saline with Tween-80",10 of 10
same,survivor count,[4],9 of 10
same,survivor count,[1],6 of 10
same,survivor count,[2],0 of 10
Cc1n(CC(C)C)c2c([n+]1C)C(=O)c1ccccc1C2=O,survivor count,"dose: 4.0 mg/kg/injection, schedule: Q01DX009 (ip), vehicle: saline",3 of 6
same,survivor count,[5],0 of 6
CCCCC(CC)COC(=O)/C=C/C(=O)OCC(CC)CCCC (centres undefined),survivor count,[6],10 of 10
C[As](C)Sc1ccnc(S[As](C)C)n1,survivor count,[7],2 of 10
CO[C@H]1C[C@H](O[C@H]2CC[C@]3(C=O)[C@H]4CC[C@]5(C)[C@@H](C6=CC(=O)OC6)CC[C@]5(O)[C@@H]4CC[C@]3(O)C2)O[C@H](C)[C@H]1O[C@@H]1O[C@H](CO)[C@@H](O)[C@H](O)[C@H]1O,survivor count,"dose: 4.0 mg/kg/injection, schedule: Q04DX003 (ip), vehicle: saline",6 of 10
O=C(O)c1cc(-c2ccc(Cl)cc2)nc2c(Cl)cccc12,survivor count,[7],9 of 10
same,survivor count,[8],0 of 10
C1#CCCCCCC#CCCCC1,survivor count,[4],10 of 10
same,survivor count,[9],10 of 10
same,survivor count,"dose: 200.0 mg/kg/injection, schedule: Q04DX003 (ip), vehicle: saline with Tween-80",8 of 10
CS(=O)(=O)OCCN(CCOS(C)(=O)=O)c1ccc(N=O)cc1,T/C,"dose: 0.05 mg/kg/injection, schedule: Q01DX009 (ip), vehicle: saline",142 % of control
same,T/C,"dose: 0.13 mg/kg/injection, schedule: Q01DX009 (ip), vehicle: saline, evaluated on day 45",127 % of control
same,T/C,"dose: 0.13 mg/kg/injection, schedule: Q01DX009 (ip), vehicle: saline, evaluated on day 60",131 % of control
same,T/C,"dose: 0.19 mg/kg/injection, schedule: Q01DX009 (ip), vehicle: saline with Tween-80",140 % of control
same,T/C,"dose: 0.2 mg/kg/injection, schedule: Q01DX009 (ip), vehicle: saline",126 % of control
same,T/C,"dose: 0.3 mg/kg/injection, schedule: Q01DX009 (ip), vehicle: saline",141 % of control
same,survivor count,"dose: 0.37 mg/kg/injection, schedule: Q01DX009 (ip), vehicle: saline with Tween-80",10 of 10
same,survivor count,"dose: 0.75 mg/kg/injection, schedule: Q01DX009 (ip), vehicle: saline with Tween-80",10 of 10
same,survivor count,"dose: 0.75 mg/kg/injection, schedule: Q01DX009 (ip), vehicle: saline",5 of 6
same,survivor count,"dose: 1.5 mg/kg/injection, schedule: Q01DX009 (ip), vehicle: saline",3 of 6
same,survivor count,[10],0 of 6
same,survivor count,"dose: 6.25 mg/kg/injection, schedule: Q01DX009 (ip), vehicle: saline",6 of 6
same,survivor count,"dose: 12.5 mg/kg/injection, schedule: Q01DX009 (ip), vehicle: saline",2 of 6
same,survivor count,"dose: 25.0 mg/kg/injection, schedule: Q01DX009 (ip), vehicle: saline",0 of 6
same,survivor count,"dose: 100.0 mg/kg/injection, schedule: Q01DX009 (ip), vehicle: saline",0 of 6
same,survivor count,[11],0 of 6
same,survivor count,[12],0 of 6
CN1C(=O)CCS(=O)(=O)C1c1ccc(Cl)c(Cl)c1 (centres undefined),survivor count,"dose: 0.39 mg/kg/injection, schedule: Q01DX009 (ip), vehicle: Klucel (hydroxypropylcellulose) (HPC)",6 of 10
same,survivor count,"dose: 0.78 mg/kg/injection, schedule: Q01DX009 (ip), vehicle: Klucel (hydroxypropylcellulose) (HPC)",5 of 10
same,survivor count,"dose: 25.0 mg/kg/injection, schedule: Q01DX009 (ip), vehicle: Klucel (hydroxypropylcellulose) (HPC)",10 of 10
same,survivor count,[6],6 of 10
same,survivor count,[7],0 of 10
CC[CH2][Sn]([Cl])([Cl])[CH2]CC.Oc1ccccc1C=NCCN=Cc1ccccc1O,survivor count,"dose: 10.0 mg/kg/injection, schedule: Q01DX009 (ip), vehicle: gum acacia",3 of 10 and 9 of 10
Cc1c(Cl)cccc1NC(=O)NCCC(C)C,survivor count,[2],10 of 10
same,survivor count,[3],10 of 10
same,survivor count,[13],9 of 10
CC(=O)NCc1cc(CNC(C)=O)c(C)cc1C,survivor count,[13],10 of 10
C[n+]1cccc(NC(=O)c2ccc(NC(=O)c3ccc(C(=O)Nc4ccc(NC(=N)N)cc4)cc3)cc2)c1,T/C,[10],133 % of control
same,survivor count,"dose: 5.0 mg/kg/injection, schedule: Q01DX009 (ip), vehicle: saline",10 of 10
same,survivor count,[5],10 of 10
same,survivor count,"dose: 12.0 mg/kg/injection, schedule: Q01DX009 (ip), vehicle: saline",8 of 10
C=CS(=O)(=O)c1ccccc1,survivor count,[2],9 of 10
O=[N+]([O-])O.[Ga],survivor count,[11],2 of 6
same,survivor count,[12],0 of 6
CC(=O)OC1OC(=O)C(C)(C(C)=O)C1C (centres undefined),survivor count,"dose: 20.0 mg/kg/injection, schedule: Q01DX009 (ip), vehicle: distilled water + alcohol",10 of 10
same,survivor count,"dose: 40.0 mg/kg/injection, schedule: Q01DX009 (ip), vehicle: distilled water + alcohol",5 of 10
CC(C)=CCC(OC(=O)C=C(C)C)C1=CC(=O)c2c(O)ccc(O)c2C1=O (centres undefined),survivor count,"dose: 1.0 mg/kg/injection, schedule: Q01DX009 (ip), vehicle: Klucel (hydroxypropylcellulose) (HPC)",10 of 10
CCCC(C)C/C(C)=C/C(C)(C)C(CC(=O)N1CCOCC1)C(=O)O (centres undefined),survivor count,[1],10 of 10
same,survivor count,[9],10 of 10
C1=CCOCOC1,survivor count,"dose: 100.0 mg/kg/injection, schedule: Q04DX003 (ip), vehicle: saline",6 of 10
same,survivor count,"dose: 200.0 mg/kg/injection, schedule: Q04DX003 (ip), vehicle: saline",0 of 10
same,survivor count,"dose: 400.0 mg/kg/injection, schedule: Q04DX003 (ip), vehicle: saline",0 of 10
CS(=O)(=O)OCC(=O)NCC(O)CNC(=O)COS(C)(=O)=O,survivor count,[13],3 of 10
CC(C(=O)O)C(=O)O.[NH-]CC[NH-].[Pt+2],survivor count,"dose: 50.0 mg/kg/injection, schedule: Q01DX009 (ip), vehicle: water",10 of 10
[N-]=[N+]=C1Cc2ccccc2C1=O,survivor count,[8],0 of 10
S=c1[nH]c2ccc(Cl)cc2s1,survivor count,"dose: 75.0 mg/kg/injection, schedule: Q04DX003 (ip), vehicle: Klucel (hydroxypropylcellulose) (HPC)",10 of 10
same,survivor count,"dose: 150.0 mg/kg/injection, schedule: Q04DX003 (ip), vehicle: Klucel (hydroxypropylcellulose) (HPC)",10 of 10
same,survivor count,"dose: 300.0 mg/kg/injection, schedule: Q04DX003 (ip), vehicle: Klucel (hydroxypropylcellulose) (HPC)",10 of 10
Cc1cc(Cl)ccc1NC(=O)CCl,survivor count,[13],8 of 10
CCCCN(C)/N=N/c1[nH]ncc1C(=O)OCC,survivor count,"dose: 400.0 mg/kg/injection, schedule: Q01DX009 (ip), vehicle: carboxymethylcellulose (CMC)",6 of 6
CN(C)CCCN1Cc2ccccc2Cc2ccccc21,survivor count,[11],0 of 10
same,survivor count,[12],0 of 10
C#CC(OC(=O)NC1CCCCC1)(c1ccccc1)c1ccccc1,T/C,[1],127 % of control
same,survivor count,[2],8 of 9
